{
  "source": "patent US20140349297A1",
  "about": "“FLUORESCENT DYES BASED ON ACRIDINE AND ACRIDINIUM DERIVATIVES” (Almac Sciences (Scotland) Limited, priority 2011, published 2014)",
  "assay": "Fluorescence lifetime of tyrosine kinase peptides (Table 4)",
  "format": "physicochemical",
  "settings": "1 μM peptide in 50 mM TRIS pH 7.4 containing 40 μM ATP, 10 mM MgCl2 and 1 mg/ml BSA",
  "note": "Part of at least one peptide drawing is inferred or uncertain, most often the ends. At least one compound was matched to its structure with a doubt left. Square brackets hold non-standard residues; d marks the D form. Peptide text beside a SMILES is read from it. * marks the point of attachment. X1 = Cc1c2ccccc2[n+](C)c2ccc(CCC(=O)*)cc12; pY = N[C@@H](Cc1ccc(OP(=O)(O)O)cc1)C(=O)O",
  "data": [
    {"smiles": "Cc1c2ccccc2[n+](C)c2ccc(CCC(=O)NCC(=O)NCC(=O)N[C@@H](CCC(=O)O)C(=O)N[C@@H](CCC(=O)O)C(=O)N[C@@H](CCC(=O)O)C(=O)N[C@@H](CCC(=O)O)C(=O)N[C@@H](Cc3ccc(OP(=O)(O)O)cc3)C(=O)N[C@@H](Cc3ccccc3)C(=O)N[C@@H](CCC(=O)O)C(=O)N[C@@H](CC(C)C)C(=O)N[C@H](C(=O)N[C@@H](CCCCN)C(=O)N[C@@H](CCCCN)C(N)=O)C(C)C)cc12", "note": "[LLD-GGEEEEpYFELVKK] (X1-GGEEEE[pY]FELVKK-NH2)", "values": [
      {"measurement": "Average Lifetime", "result": 16.1, "unit": "ns"}
    ]}
  ]
}
